These results are taken from paper doi:10.1101/291427.

In this assay the target is T1, CSEP0064/BEC1054 bait, C-terminally tagged with the C-terminal half of mYFP (Blumeria graminis f.sp. hordei) (UniProt N1JJ94).
T1 sequence: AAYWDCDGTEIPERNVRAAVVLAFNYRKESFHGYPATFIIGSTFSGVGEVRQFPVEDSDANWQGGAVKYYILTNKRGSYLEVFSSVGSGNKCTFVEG
Put plainly: split reporter.

No constants are given. Whether binding was seen depends on the method and setting. In cells and extracts the contact can be indirect. Binding calls can cover weak binding; strength is not graded here. Tags and fused reporters may be left off the sequences shown.

For “malate dehydrogenase (MDH), BiFC prey (barley (Hordeum vulgare)) (enzyme)”, the binding entry is listed as “no binding”.

Turning to “Glutathione-S-Transferase (GST), C-terminally tagged with the N-terminal domain of mYFP (from UniProt A0A0U2I2F3) (enzyme)”, the binding result is “binds”.

Take “eukaryotic Elongation Factor 1 Alpha isoform 3 (eEF1α(3)), BiFC prey (barley (Hordeum vulgare))”: the binding result is “no binding”.

With “ribosomal 40S subunit protein 16 (40S S16), BiFC prey (barley (Hordeum vulgare))”, the binding entry is given as “no binding”.
